Test results reported in PubChem BioAssay AID1671190 (National Center for Advancing Translational Sciences (NCATS), 2021).
The campaign covered roughly 580,000 compounds. About 6,100 (1.1%) were called active. This list was built around the results that the source calls inconclusive (neither active nor inactive); the mix of calls is not that of the screen. Calls follow the shape of the dose curve; as a rule, active = well fitted inhibition curve with a large enough effect; inconclusive = small, poorly fitted or top-dose-only effect, or another doubt; inactive = no such curve, though single readings can be large or run the other way. Potencies of inconclusive entries are doubtful fits and often do not repeat.
% is scaled to controls: 0 for no effect and ±100 for the full control effect; potency is read from the fitted curve at half-maximal effect.

Sequences of proteins named here, by UniProt entry; tags and fusion partners are left off. A change or cut given only in a name is not applied to a line headed by its entry.
UniProt P18054: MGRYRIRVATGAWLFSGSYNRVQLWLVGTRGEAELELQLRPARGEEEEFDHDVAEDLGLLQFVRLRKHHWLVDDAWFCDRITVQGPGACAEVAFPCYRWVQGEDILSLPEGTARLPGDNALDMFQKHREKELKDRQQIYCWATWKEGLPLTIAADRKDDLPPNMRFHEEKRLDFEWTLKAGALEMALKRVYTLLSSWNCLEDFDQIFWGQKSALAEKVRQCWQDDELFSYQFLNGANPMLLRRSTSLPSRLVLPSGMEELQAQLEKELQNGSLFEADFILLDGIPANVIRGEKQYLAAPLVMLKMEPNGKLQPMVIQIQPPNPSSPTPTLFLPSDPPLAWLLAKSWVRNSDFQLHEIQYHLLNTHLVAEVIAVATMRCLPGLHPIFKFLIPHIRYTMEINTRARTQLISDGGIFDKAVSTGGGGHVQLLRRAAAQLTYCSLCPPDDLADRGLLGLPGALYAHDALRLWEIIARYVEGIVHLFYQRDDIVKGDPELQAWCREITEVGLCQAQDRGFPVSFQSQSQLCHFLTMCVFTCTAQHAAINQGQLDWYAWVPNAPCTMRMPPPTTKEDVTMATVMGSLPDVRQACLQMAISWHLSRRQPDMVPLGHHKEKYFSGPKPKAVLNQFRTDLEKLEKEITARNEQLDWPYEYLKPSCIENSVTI

These molecules were tested against Polyunsaturated fatty acid lipoxygenase ALOX12 (Homo sapiens) (UniProt P18054) (assay: Primary qHTS assay for inhibitors of human arachidonate 12S-lipoxygenase (ALOX12): Round 2). Conditions: purified 12hLO, xylenol orange hydroperoxide absorbance; activity change, negative = inhibition: at 108 µM (top of the series) unless noted.
Summary of the method: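 Purified human 12hLO at 150 nM in 25 mM Hepes, 0.01% Triton X-100, pH 7.0, preincubated 15 min at room temperature with compound. Reaction started with 40 uM arachidonic acid, 30 min at room temperature. Hydroperoxide measured by Fe-xylenol orange, 573/405 nm absorbance ratio.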
`COc1cccc2oc3cc(C#CC4(O)CCCCC4)ccc3c(=O)c12` was tested, and the Potency was inconclusive: 39.8 µM [inhibitor, partial curve, poor fit].
`CCOC(=O)CSc1nnc(-c2cc(OC)c(OC)c(OC)c2)o1` was tested, and the “activity change, negative = inhibition” value was inactive: 481%.
For `COC(=O)C1CN(Cc2cn(CCOC(C)=O)nn2)CCS(=O)(=O)N1Cc1ccc(F)cc1` (configuration not stated), the Potency was inconclusive: 5.01 µM [inhibitor, full curve, poor fit].
`CNC(=O)c1c(NC(=O)c2cc(=O)c3ccccc3o2)sc2c1CCC2` was tested, and the “activity change, negative = inhibition” value was inactive: 0%.
With `O=C(NCc1ccccc1)c1ccnc(-c2nnc3ccc(N4CCOCC4)nn23)c1` the “activity change, negative = inhibition” value was inactive: 24.5% [at 176 µM].
In the case of `COC(=O)N1CCn2cc(C(=O)NCc3ccc(Cl)nc3)nc2C1`, the activity change, negative = inhibition is reported as inactive: 7.99% [at 6.33 µM].
For `COc1ccc(N2CC(C(=O)Nc3nnc(SCC(=O)N4CCOCC4)s3)CC2=O)cc1` (configuration not stated), the “activity change, negative = inhibition” value was inactive: -8.95%.
In the case of `N#Cc1ccc(S(=O)(=O)N2CCCCCCNC(=O)[C@@H]3CCC[C@@H]32)cc1`, the “activity change, negative = inhibition” value is reported as inactive: 26.6%.
With `Cn1c(=O)c(C(=O)N2CCc3ccccc32)cc2cccnc21` the “activity change, negative = inhibition” value was inactive: -19.4%.
For `O=C(NCC(c1ccco1)N1CCCCC1)c1cc2ccccc2oc1=O` (configuration not stated), the “activity change, negative = inhibition” value was inactive: -1.11%.
With `S=C(Nc1ccc(Oc2ccccc2)cc1)NC1CCCCC1` the Potency was inconclusive: 158 µM [inhibitor, partial curve, poor fit].
In the case of `COC(=O)C1=C(C)N(c2ccc(F)cc2)C(=O)C1`, the “activity change, negative = inhibition” value is reported as inactive: -10.5%.
For `CCCCNC(=O)CSc1c2c(nc3ccc(Cl)cc13)CCCC2`, the Potency was inconclusive: 28.2 µM [inhibitor, single point].
`Cc1cc(O)c(Sc2ccc(Cl)cc2)c(=O)[nH]1` was tested, and the Potency was inconclusive: 79.4 µM [inhibitor, partial curve, poor fit].
With `O=[N+]([O-])c1ncccc1OCc1ccc(Br)cc1F` the Potency was inconclusive: 89.1 µM [inhibitor, single point].
`Cc1c(C(=O)N(C)CCn2ccnc2C)oc2c(F)cccc12` was tested, and the Potency was inconclusive: 112 µM [inhibitor, partial curve, poor fit].
In the case of `CN(CC(=O)NC1CCCCNC1=O)Cc1cccc(F)c1` (configuration not stated), the Potency is reported as inconclusive: 112 µM [inhibitor, single point].
In the case of `CC(C)c1ccc(CN2C[C@@H]3C(=O)N(Cc4ccc5c(c4)OCO5)C(=O)[C@@H]3C2)cc1`, the Potency is reported as inconclusive: 12.6 µM [inhibitor, full curve, poor fit].
With `COc1ccc(NC(=S)Nc2cccc(C(F)(F)F)c2)c(C)c1` the Potency was inconclusive: 50.1 µM [inhibitor, partial curve, poor fit].
`CCC1=C(C(=O)OC)C(c2ccccc2OC)N2C(CC(=O)NC(C)(C)C)=CSC2=N1` (configuration not stated) was tested, and the “activity change, negative = inhibition” value was inactive: 41.9%.
In the case of `CN(C)c1ccc(C(=S)N2CCCCCC2)cc1`, the Potency is reported as active: 39.8 µM.
In the case of `Cc1cccnc1Nc1nc(-c2ccccc2)cs1`, the “activity change, negative = inhibition” value is reported as inactive: -14.9%.
`Cc1ccc(/C=c2/sc3nnc(-c4ccccc4Cl)n3c2=O)o1` was tested, and the Potency was inconclusive: 100 µM [inhibitor, partial curve, poor fit].
`COc1ccc(NC(=O)NC2(C(F)(F)F)Oc3ccccc3O2)cc1` was tested, and the Potency was inconclusive: 6.31 µM [inhibitor, full curve].
`CSCCC(NC(=O)Cc1cccc(C(F)(F)F)c1)c1nc2ccccc2s1` (configuration not stated) was tested, and the Potency was inconclusive: 44.7 µM [inhibitor, partial curve, poor fit].
In the case of `COc1ccc(N(CC(=O)Nc2ccc3c(c2)OCCO3)S(=O)(=O)c2c(C)noc2C)cc1`, the “activity change, negative = inhibition” value is reported as inactive: -9.24%.
With `COCCN(CCOC)CC(O)COc1ccc(C#N)cc1` (configuration not stated) the Potency was inconclusive: 0.708 µM [inhibitor, full curve, poor fit].
With `CC(C)c1ccc(NC(=O)CCS(=O)(=O)c2ccc(Br)s2)cc1` the “activity change, negative = inhibition” value was inactive: -17.4%.
In the case of `O=C(Nc1sc2c(c1C(=O)O)CCC2)c1cccc(Cl)c1`, the Potency is reported as inconclusive: 31.6 µM [inhibitor, partial curve, poor fit].
`CCOC(=O)c1c(C)n(C)c2cc(Br)c(OC)cc12` was tested, and the “activity change, negative = inhibition” value was inactive: -7.4%.
With `COCCOC1CCOC2(CCN(C(=O)c3ccc(C)nc3)CC2)C1` (configuration not stated) the Potency was inconclusive: 22.4 µM [inhibitor, partial curve, poor fit].
For `CN(Cc1nc2ccccc2[nH]1)S(=O)(=O)c1cc(Br)ccc1Br`, the “activity change, negative = inhibition” value was inactive: 3.41%.
`CCCCN1C(=O)C(O)(c2ccccc2)c2cc(Br)ccc21` (configuration not stated) was tested, and the Potency was inconclusive: 89.1 µM [inhibitor, single point].
In the case of `Cc1cc(C)cc(OCC(=O)Nc2ccc3oc(-c4ccncc4)nc3c2)c1`, the Potency is reported as inconclusive: 31.6 µM [inhibitor, partial curve, poor fit].
For `COc1ccc(-c2csc(N(CCCN3CCOCC3)C(=O)c3ccco3)n2)cc1`, the Potency was inconclusive: 39.8 µM [inhibitor, partial curve, poor fit].
With `O=C(NC(=S)Nc1ccccc1O)c1ccccc1Cl` the Potency was inconclusive: 35.5 µM [inhibitor, partial curve].
In the case of `O=C(Nc1cccc(C(F)(F)F)c1)c1cc(-c2ccc[nH]2)n[nH]1`, the Potency is reported as active: 15.8 µM.
In the case of `COc1ccc(/C=C2\Oc3cc(OS(=O)(=O)c4ccc(C)cc4)ccc3C2=O)c(OC)c1`, the Potency is reported as inconclusive: 31.6 µM [inhibitor, partial curve, poor fit].
`Cc1cccc2c1-c1sc(C(=O)NCc3ccccc3Cl)cc1CO2` was tested, and the “activity change, negative = inhibition” value was inactive: -23.7%.
For `COc1ccccc1/C=C\C=N\n1c(-c2ccc(Cl)cc2Cl)n[nH]c1=S`, the Potency was inconclusive: 35.5 µM [inhibitor, partial curve, poor fit].
With `COc1ccc(-n2nc(C)c3c2NC(=O)CC3c2ccc(O)cc2)cc1` (configuration not stated) the “activity change, negative = inhibition” value was inactive: 13.1%.
`CCOCCn1c(=O)c2c(nc3n2CC(C)CN3Cc2ccccc2)n(C)c1=O` (configuration not stated) was tested, and the “activity change, negative = inhibition” value was inactive: -0.505%.
With `C/C(=N\NC(=O)Cn1nc(C)c([N+](=O)[O-])c1C)c1ccc(Cl)s1` the Potency was inconclusive: 112 µM [inhibitor, single point].
`O=C(O)c1cc2ccccc2cn1` was tested, and the “activity change, negative = inhibition” value was inactive: 0.726%.
With `CCc1cc(-c2n[nH]c(=S)n2C(C)c2ccccc2)cs1` (configuration not stated) the Potency was inconclusive: 50.1 µM [inhibitor, partial curve, poor fit].
In the case of `O=C(/C=C/c1cccs1)OCC(=O)c1ccc2c(c1)-c1ccccc1C2`, the “activity change, negative = inhibition” value is reported as inactive: -7.08%.
`COC(=O)[C@@]1(Cc2ccccc2)[C@H]2C(=O)N(C)C(=O)[C@H]2[C@H]2CN=C(SCc3ccc(Cl)cc3)N21` was tested, and the “activity change, negative = inhibition” value was inactive: -25.8%.
